Reference: publication PMC7680112
Results are given in words; binding and its absence hold for the method and conditions named. Some binding calls cover weakened binding; strength is not graded here.

The chains behind the UniProt entries cited, without tags or fusion partners. Where a name states a change or a piece, a line headed by the entry shows the natural chain unless it says otherwise.
UniProt Q99592: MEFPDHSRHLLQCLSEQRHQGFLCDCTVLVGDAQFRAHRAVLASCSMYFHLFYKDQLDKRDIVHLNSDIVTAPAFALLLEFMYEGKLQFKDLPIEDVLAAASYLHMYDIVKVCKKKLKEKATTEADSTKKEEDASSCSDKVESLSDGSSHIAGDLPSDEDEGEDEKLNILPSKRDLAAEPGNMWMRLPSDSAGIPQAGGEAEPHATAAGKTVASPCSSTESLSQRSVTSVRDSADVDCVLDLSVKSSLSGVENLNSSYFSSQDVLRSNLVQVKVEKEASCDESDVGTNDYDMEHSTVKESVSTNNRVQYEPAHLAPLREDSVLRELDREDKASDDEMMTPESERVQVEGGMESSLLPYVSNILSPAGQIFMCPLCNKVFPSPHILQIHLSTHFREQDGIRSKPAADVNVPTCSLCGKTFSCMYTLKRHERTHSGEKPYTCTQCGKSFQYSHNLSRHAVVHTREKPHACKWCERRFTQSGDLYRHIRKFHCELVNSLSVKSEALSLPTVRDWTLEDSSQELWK

Columns and labels:
[1] = molecular target: ZBTB18 A502T (human) (UniProt Q99592); assay: two-hybrid; pairwise yeast two-hybrid: DB-X baits (wt and mutant) against AD-Y preys; mated in YEPD for 24 h, plated on Sc-Leu-3AT and Sc-Leu-His-CHX (autoactivation test); three independent repeats, positive if scored at least twice
[2] = molecular target: ZBTB18 wild type (human) (UniProt Q99592); assay: as above

binding [1]: no binding
binding [2]: binds
Substance: CTBP2 (from UniProt P56545 1-445)
